{"source": "paper PMC10663510", "about": "(Scientific Reports, 2023)", "test_system": "T1, MSMEG-3765 (TetR-like repressor)", "T1 sequence (looked up, limits assumed)": "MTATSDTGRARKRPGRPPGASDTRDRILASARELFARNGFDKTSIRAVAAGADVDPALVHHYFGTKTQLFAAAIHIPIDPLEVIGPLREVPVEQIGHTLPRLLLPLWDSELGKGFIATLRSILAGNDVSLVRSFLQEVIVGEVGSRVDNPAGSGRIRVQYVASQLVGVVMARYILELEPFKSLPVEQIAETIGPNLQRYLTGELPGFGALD", "experiment": "EMSA", "settings": "dose-dependent increase in free DNA, 20 mM HEPES pH 8.0, 75 mM NaCl, 10 mM MgCl2, 5% glycerol, 20 ul, 30 C 10 min, native 8% PAGE at 4 C, recombinant protein, label: none (SYBR Gold stain), probe letters rebuilt from the primers and the genome", "note": "For at least one entry, the source does not settle the construct or the ends of the probe. The comparison behind a weaker result is the experiment's own reference, which may not be listed here. Where a protein sequence is shown, tags need not be part of it.", "data": [{"sequence": "CTGCTGGAGTCCGCCGCCTGAGCCAGGCGTCGCCGACGCCGAAATGTGTCGACGCATCGTCTTCCCACCGGACGACGGCAGGCCTAGAATTCATTGCATGATGACTTCATCGCGCGATGAATTGTCAGCGACGGGGCCCG (double strand) [133 bp MSMEG_3762 upstream operator fragment]", "values": [{"measurement": "binding result", "setting": "ciprofloxacin 400 or 4000 pmol", "value": "binds more weakly"}, {"measurement": "binding result", "setting": "rifampicin 400 or 4000 pmol (also 100-400 pmol in Fig S6)", "value": "binds more weakly"}]}]}
